Results deposited as PubChem BioAssay AID743121 (NCATS, 2013).

Assay: 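Partners whose loss is lethal together with topoisomerase I blockade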 (primary screen)
System: MDA-MB-231 cells, a human breast cancer line
Reagent: single siRNA against human genes, 20 nM siRNA (0.8 pmol per well)
Duration: 120 h (drug added 48 h after transfection, read 72 h later)
Challenge: camptothecin 20 nM (about EC30) for 72 h; vehicle 0.1% DMSO in parallel plates
Measurement: 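Cell viability by ATP luminescence (CellTiter-Glo) as % of non-targeting siRNA wells, and the log2 ratio of viability without drug over viability with camptothecin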
Reading the numbers: log2 vehicle/camptothecin viability: higher = stronger sensitisation to camptothecin
Rule for the call: 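Active genes have an RSA gene-level p-value below 0.001, computed from the ratios of their separate siRNAs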
In all, the deposit lists about 26,000 reagents; shown is an unselected part. 167 of all reagents (0.63%) count as active. 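Calls are per gene from RSA p-values that are not deposited; an individual active-marked siRNA can sensitise only weakly.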 Reagents against one gene are numbered here. Further read-outs or replicates are left out here.

SKIL (GeneID 6498) #1 → log2 vehicle/camptothecin viability = -0.511; Call = inactive
SKIL (GeneID 6498) #2 → log2 vehicle/camptothecin viability = -0.217; Call = inactive
SKIL (GeneID 6498) #3 → log2 vehicle/camptothecin viability = -0.371; Call = inactive
UHRF1 (GeneID 29128) #1 → log2 vehicle/camptothecin viability = -0.278; Call = inactive
UHRF1 (GeneID 29128) #2 → log2 vehicle/camptothecin viability = -0.103; Call = inactive
UHRF1 (GeneID 29128) #3 → log2 vehicle/camptothecin viability = -0.237; Call = inactive
UHRF1 (GeneID 29128) #4 → log2 vehicle/camptothecin viability = 0.0439; Call = inactive
PRCC (GeneID 5546) #1 → log2 vehicle/camptothecin viability = -0.432; Call = inactive
PRCC (GeneID 5546) #2 → log2 vehicle/camptothecin viability = 1.46; Call = inactive
PRCC (GeneID 5546) #3 → log2 vehicle/camptothecin viability = 0.0791; Call = inactive
PRCC (GeneID 5546) #4 → log2 vehicle/camptothecin viability = -0.266; Call = inactive
KDM2B (GeneID 84678) #1 → log2 vehicle/camptothecin viability = -0.0552; Call = inactive
KDM2B (GeneID 84678) #2 → log2 vehicle/camptothecin viability = -0.0154; Call = inactive
KDM2B (GeneID 84678) #3 → log2 vehicle/camptothecin viability = 0.0898; Call = inactive
KDM2B (GeneID 84678) #4 → log2 vehicle/camptothecin viability = -0.154; Call = inactive

Part of the list above in another layout.
Gene,reagent no.,log2 vehicle/camptothecin viability,Call
UHRF1 (GeneID 29128),2,-0.103,inactive
UHRF1 (GeneID 29128),3,-0.237,inactive

Next reagents:
MELTF (GeneID 4241) #1 → log2 vehicle/camptothecin viability = -0.0828; Call = inactive
MELTF (GeneID 4241) #2 → log2 vehicle/camptothecin viability = -0.347; Call = inactive
MELTF (GeneID 4241) #3 → log2 vehicle/camptothecin viability = -0.487; Call = inactive
MELTF (GeneID 4241) #4 → log2 vehicle/camptothecin viability = -0.26; Call = inactive
MELTF (GeneID 4241) #5 → log2 vehicle/camptothecin viability = -0.159; Call = inactive
MELTF (GeneID 4241) #6 → log2 vehicle/camptothecin viability = -0.0283; Call = inactive
MELTF (GeneID 4241) #7 → log2 vehicle/camptothecin viability = -0.332; Call = inactive
MELTF (GeneID 4241) #8 → log2 vehicle/camptothecin viability = -0.369; Call = inactive
RTP3 (GeneID 83597) #1 → log2 vehicle/camptothecin viability = 0.127; Call = inactive
RTP3 (GeneID 83597) #2 → log2 vehicle/camptothecin viability = -0.113; Call = inactive
RTP3 (GeneID 83597) #3 → log2 vehicle/camptothecin viability = -0.302; Call = inactive
RTP3 (GeneID 83597) #4 → log2 vehicle/camptothecin viability = -0.383; Call = inactive
CHD3 (GeneID 1107) #1 → log2 vehicle/camptothecin viability = 0.152; Call = inactive
CHD3 (GeneID 1107) #2 → log2 vehicle/camptothecin viability = -0.186; Call = inactive
CHD3 (GeneID 1107) #3 → log2 vehicle/camptothecin viability = -0.619; Call = inactive
SLC4A8 (GeneID 9498) #1 → log2 vehicle/camptothecin viability = -0.384; Call = inactive
SLC4A8 (GeneID 9498) #2 → log2 vehicle/camptothecin viability = -0.0457; Call = inactive
SLC4A8 (GeneID 9498) #3 → log2 vehicle/camptothecin viability = 0.00398; Call = inactive
SLC4A8 (GeneID 9498) #4 → log2 vehicle/camptothecin viability = -0.065; Call = inactive
MSH3 (GeneID 4437) #1 → log2 vehicle/camptothecin viability = -0.349; Call = inactive
MSH3 (GeneID 4437) #2 → log2 vehicle/camptothecin viability = 0.391; Call = inactive
MSH3 (GeneID 4437) #3 → log2 vehicle/camptothecin viability = 0.131; Call = inactive
